Measurements from publication PMC11162468.
Results are given in words; binding and its absence hold for the method and conditions named. In cells and extracts the contact can be indirect. These calls come from enrichment with a bait or labelling near it, and not all partners need be listed.

By UniProt entry, the sequences of proteins in these tests, tags left out. Residues count along the entry.
UniProt P06213, residues 28-1382: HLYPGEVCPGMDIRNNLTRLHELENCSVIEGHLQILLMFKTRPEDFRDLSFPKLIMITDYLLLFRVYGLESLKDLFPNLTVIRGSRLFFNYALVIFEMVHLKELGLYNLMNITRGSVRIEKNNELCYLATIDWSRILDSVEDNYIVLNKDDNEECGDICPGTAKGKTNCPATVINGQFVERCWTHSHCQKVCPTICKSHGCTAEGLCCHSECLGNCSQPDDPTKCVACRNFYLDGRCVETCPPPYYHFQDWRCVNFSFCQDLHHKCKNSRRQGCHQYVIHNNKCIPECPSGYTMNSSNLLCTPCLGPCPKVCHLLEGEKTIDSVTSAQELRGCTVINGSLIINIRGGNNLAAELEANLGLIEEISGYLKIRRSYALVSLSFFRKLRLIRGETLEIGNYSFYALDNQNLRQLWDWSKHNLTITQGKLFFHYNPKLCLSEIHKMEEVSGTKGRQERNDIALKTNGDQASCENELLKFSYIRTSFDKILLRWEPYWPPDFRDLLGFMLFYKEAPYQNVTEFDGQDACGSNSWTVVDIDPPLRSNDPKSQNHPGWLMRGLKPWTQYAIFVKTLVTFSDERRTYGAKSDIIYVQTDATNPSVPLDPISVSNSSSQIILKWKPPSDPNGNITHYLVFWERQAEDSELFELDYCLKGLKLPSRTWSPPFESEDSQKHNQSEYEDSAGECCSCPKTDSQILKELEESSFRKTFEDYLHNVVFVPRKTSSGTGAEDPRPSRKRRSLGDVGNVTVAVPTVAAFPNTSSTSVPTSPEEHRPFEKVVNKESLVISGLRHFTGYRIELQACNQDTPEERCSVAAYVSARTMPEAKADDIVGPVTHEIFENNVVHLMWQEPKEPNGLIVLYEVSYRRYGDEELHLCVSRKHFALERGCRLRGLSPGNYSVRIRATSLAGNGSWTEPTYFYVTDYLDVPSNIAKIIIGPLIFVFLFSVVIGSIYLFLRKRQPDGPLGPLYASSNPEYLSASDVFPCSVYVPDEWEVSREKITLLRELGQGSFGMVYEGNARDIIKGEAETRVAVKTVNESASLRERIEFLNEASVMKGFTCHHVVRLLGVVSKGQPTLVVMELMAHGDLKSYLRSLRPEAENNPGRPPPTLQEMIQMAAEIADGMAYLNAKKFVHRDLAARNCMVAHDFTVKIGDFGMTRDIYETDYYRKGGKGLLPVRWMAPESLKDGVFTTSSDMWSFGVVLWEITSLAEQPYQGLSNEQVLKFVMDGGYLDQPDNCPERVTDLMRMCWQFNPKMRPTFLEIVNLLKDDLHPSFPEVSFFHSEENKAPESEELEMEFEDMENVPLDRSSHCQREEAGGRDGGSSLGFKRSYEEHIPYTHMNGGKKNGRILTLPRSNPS

Key:
[1] = target: IR-EGFP (UniProt P06213); assay: affinity purification with mass spectrometry; anti-IR immunoprecipitates from nuclear extracts of H226Br cells stably expressing IR-EGFP (against EGFP) and of A549 cells stimulated with IGF2 (50 ng/mL, 3 h); gel bands that were differentially greater analysed by LC-MS/MS; proteins common to the two analyses
[2] = target: insulin receptor (IR) (human (endogenous in A549 and H226Br)) (UniProt P06213); assay: as above

binding [1]: binds
binding [2]: binds
Substance: nucleophosmin (NPM1) (from UniProt P06748-1 1-294)
